# Measurements reported in US20020160988A1 (priority 2001, published 2002).
# Not every entry of the source has a single result; some have several. The list is limited to them. An entry can have further records. Results that share an entry do not match, cause unknown; some may be repeats, others may stem from another dose, organism or construct than stated.
# System: closed head injury
# Assay: Protection against closed head injury in mice
# Format: in vivo
# Details: 10 mg/kg i.p.; tested form: bromide
smiles,measurement,value
COc1ccc2cc(C(C)C(=O)OCCCCCCCC[n+]3cccc(OC(=O)N(C)C)c3)ccc2c1 (stereo not shown),"DNSS (difference in neurological severity score, 1 h − 24 h)",2.25 and 2.3 ·
